Assay [1] addresses T1, GST-XYR1 AD(767-860) (T. reesei) (UniProt G0RLE8).
T1 sequence: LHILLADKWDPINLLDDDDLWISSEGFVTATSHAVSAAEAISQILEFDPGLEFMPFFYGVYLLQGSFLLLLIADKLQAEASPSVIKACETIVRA
Briefly: pull-down; purified GST or GST-XYR1 AD(767-860) pre-coupled on glutathione sepharose 4B beads, incubated with TrGAL11 KIX-His at least 2 h at room temperature; three washes with PBST (0.5% Triton X-100, pH 7.4); western blot with anti-His antibody; both purified.

For assay [2], the target named is T2, XYR1 activation domain (XYR1 AD, aa 767-860), Gal4 DNA-binding domain fusion from pGBKT7-XYR1 AD (T. reesei) (UniProt G0RLE8).
T2 sequence: T1 sequence
The experiment in a line: two-hybrid; yeast Y2H Gold; XYR1 AD in pGBKT7, TrGAL11 full length or KIX in pGADT7; serial dilutions spotted on QDO (SD/-Ade/-His/-Leu/-Trp) with 75 ng/mL AbA, 30°C, 3 days.

For two substances, binding results are on record in paper PMC7467262.

These are yes or no findings as the source states them, for the method shown. Binding can be weak; no strength is given. Sequences can lack the tags named with a protein.

With “TrGAL11 KIX-6His (amino acids 1-134) (from UniProt G0RJA8) (domain or fragment)”, in assay [1], the binding result is “binds”.

“TrGAL11 full length, Gal4 activation domain fusion from pGADT7-TrGAL11 FL (T. reesei)”: the binding result in assay [2] is “binds”.
